Test results from doi:10.1101/2021.07.09.451853.
No constants are given. Whether binding was seen depends on the method and setting. For some of these results: Binding calls can cover weak binding; strength is not graded here. Where a sequence is shown, tags or fusion partners need not be part of it. For some of these results: In cells and extracts the contact can be indirect.

The chains behind the UniProt entries cited, without tags or fusion partners. Where a name states a change or a piece, a line headed by the entry shows the natural chain unless it says otherwise.
UniProt Q9SGW5: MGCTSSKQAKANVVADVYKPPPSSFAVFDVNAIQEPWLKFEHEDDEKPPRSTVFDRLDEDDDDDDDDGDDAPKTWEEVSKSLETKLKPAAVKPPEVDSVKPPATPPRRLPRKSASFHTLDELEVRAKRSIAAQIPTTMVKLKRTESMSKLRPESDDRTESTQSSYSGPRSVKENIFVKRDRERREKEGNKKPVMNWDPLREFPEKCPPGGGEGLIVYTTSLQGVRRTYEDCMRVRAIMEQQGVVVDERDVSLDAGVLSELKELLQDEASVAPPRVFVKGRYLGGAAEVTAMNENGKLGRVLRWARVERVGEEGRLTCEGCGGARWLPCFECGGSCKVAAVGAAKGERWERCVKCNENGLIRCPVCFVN

T1: 14-3-3 KAPPA:YFP (35S:KAPPA:YFP) (A. thaliana) (UniProt P48348)
T1 sequence: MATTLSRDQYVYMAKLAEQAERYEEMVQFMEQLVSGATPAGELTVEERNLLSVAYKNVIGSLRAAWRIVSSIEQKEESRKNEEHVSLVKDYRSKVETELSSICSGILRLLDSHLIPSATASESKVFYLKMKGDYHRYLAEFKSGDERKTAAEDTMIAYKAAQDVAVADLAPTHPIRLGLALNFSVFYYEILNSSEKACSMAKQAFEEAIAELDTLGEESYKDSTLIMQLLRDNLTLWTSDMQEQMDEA

T2: 14-3-3 CHI:YFP (35S:CHI:YFP) (A. thaliana) (UniProt P42643)
T2 sequence: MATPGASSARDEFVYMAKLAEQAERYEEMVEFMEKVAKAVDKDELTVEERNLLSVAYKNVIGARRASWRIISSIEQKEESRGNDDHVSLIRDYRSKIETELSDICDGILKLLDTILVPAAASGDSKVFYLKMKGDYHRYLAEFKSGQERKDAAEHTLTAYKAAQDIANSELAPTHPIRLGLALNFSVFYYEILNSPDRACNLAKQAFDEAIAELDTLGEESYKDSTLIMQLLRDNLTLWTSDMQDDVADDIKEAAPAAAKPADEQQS

T3: 14-3-3 OMEGA:YFP (35S:OMEGA:YFP) (A. thaliana) (UniProt Q01525)
T3 sequence: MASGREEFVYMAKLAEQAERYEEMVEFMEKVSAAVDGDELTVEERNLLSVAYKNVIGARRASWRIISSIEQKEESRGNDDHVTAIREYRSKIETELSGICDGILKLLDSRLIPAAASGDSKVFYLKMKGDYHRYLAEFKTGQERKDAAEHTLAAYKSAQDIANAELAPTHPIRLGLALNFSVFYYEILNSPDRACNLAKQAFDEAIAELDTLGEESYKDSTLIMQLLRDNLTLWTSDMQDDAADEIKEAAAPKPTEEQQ

B1: 14-3-3 KAPPA (yeast two-hybrid fusion) (protein, UniProt P48348 1-248)
chain: T1 sequence

What was measured:
[1] = target: T1, 14-3-3 KAPPA:YFP (35S:KAPPA:YFP) (A. thaliana); assay: co-IP
[2] = target: T2, 14-3-3 CHI:YFP (35S:CHI:YFP) (A. thaliana); assay: co-IP
[3] = target: T3, 14-3-3 OMEGA:YFP (35S:OMEGA:YFP) (A. thaliana); assay: co-IP
[4] = target: THRUMIN1 (yeast two-hybrid fusion) (A. thaliana) (UniProt Q9SGW5); assay: two-hybrid

| Molecule | binding [1] | binding [2] | binding [3] | binding [4] |
| --- | --- | --- | --- | --- |
| THRUMIN1:HA (35S:THRUMIN1:HA) (A. thaliana) | binds | no binding | binds | – |
| B1 | – | – | – | binds |
